# Laboratory results from PubChem BioAssay AID687020 (Broad Institute, 2013).
# This is a selection; strong and weak results do not stand in their true shares. Potency and affinity values are given separately. Activity calls are given as the source filed them. The rule behind the calls is not given here.
# Assay: Vero cell toxicity, dose response, cytotoxicity control, plate reader, cherry-pick samples (AID 687020);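 note: compounds incubated with cells for three days before luminescence read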
# Conditions: Vero cells toxicity; at 19.5 µM (top of the series)
row,SMILES,"activity change, negative = toxicity"
1,CCCCCCCCc1ccc(O)cc1,inactive: -21.8%
